Laboratory results: PubChem BioAssay AID493246 (Drosophila RNAi Screening Center, 2011)
In all, the deposit lists about 21,000 reagents; shown is a random part of those with a known target gene and a result. Of all reagents, 429 (2%) were called active. 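Values are raw and not normalised between plates; calls rest on per-plate z-scores that were not deposited.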 Unmarked entries are inactive. A plus sign joins genes that one reagent is predicted to hit. Reagent sequences are not shown. Not stated in the record: the amount of reagent, the time to read-out.

Test: 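Genome-wide search for dsRNAs that reduce cell number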 (primary screen)
Cells: Drosophila Kc and S2R+ cells
Reagents: long dsRNA against Drosophila genes
Read-out: 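Cell number per well after knock-down, printed as raw plate values; calls were based on per-plate z-scores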
Scale: Kc cell number and S2R+ cell number: higher = more cells remaining
Call rule: 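Counted as a hit if cell number falls by a z-score of at least 3 within its plate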

Gene	DRSC id	Kc cell number, rep 1	Kc cell number, rep 2	S2R+ cell number, rep 1	S2R+ cell number, rep 2
Sil1	DRSC14242	1.48e6	1.58e6	1.29e6	1.34e6
aspr	DRSC20689	1.50e6	1.50e6	1.05e6	1.15e6
aspr	DRSC20690	1.51e6	1.48e6	1.06e6	1.15e6
fand	DRSC06967	1.07e6	1.26e6	8.02e5	8.35e5
Hinfp	DRSC18484	1.45e6	1.50e6	1.00e6	1.09e6
CG7084	DRSC16194	1.56e6	1.60e6	1.17e6	1.23e6
ouib	DRSC14376	1.38e6	1.53e6	1.23e6	1.33e6
pns	DRSC08598	1.40e6	1.45e6	1.03e6	1.38e6
CG42568 + DnaJ-60	DRSC04207	1.48e6	1.55e6	1.17e6	1.13e6
CG42568 + DnaJ-60	DRSC04611	1.34e6	1.40e6	1.15e6	1.25e6
CG8292	DRSC03082	1.56e6	1.63e6	1.14e6	1.29e6
CG14000 + bchs	DRSC02333	1.48e6	1.33e6	1.09e6	1.21e6
CG13151	DRSC06276	1.47e6	1.55e6	1.22e6	1.38e6
CG10969	DRSC09811	1.43e6	1.45e6	1.21e6	1.32e6
CG8952	DRSC20133	6.04e5		9.44e5	
cGlr1	DRSC06270	1.69e6	1.68e6	1.17e6	1.28e6
Mcm6	DRSC18680	5.33e5		8.77e5	
Nach	DRSC07478	1.50e6	1.57e6	1.16e6	1.29e6
lectin-28C	DRSC03010	1.54e6	1.63e6	1.22e6	1.32e6
CG11141	DRSC06048	1.26e6	1.55e6	8.92e5	9.65e5
Cpr66D	DRSC10640	1.39e6	1.36e6	7.91e5	8.97e5
Cpr66D	DRSC10646	1.55e6	1.54e6	9.06e5	1.02e6
CG2113	DRSC08554	1.22e6	1.34e6	1.08e6	1.24e6
CG30001	DRSC05191	1.52e6	1.58e6	9.55e5	1.12e6
